This continues a long series; more values of the same kind are listed elsewhere.
System: wildtype (WT) human fibroblast cell lines
Experiment: Transcriptome-wide splicing by RNA sequencing (RNASeq), exon triplet PSI change;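 for Effect: six WT fibroblast lines treated seven days versus DMSO vehicle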;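 for T-PSI: T-PSI is average treated PSI after seven days of treatment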
Type: cell-based
Parameters: key to Effect: Exclusion; Inclusion; Unchanged
Excerpt: FIG. 2A provides a representation of an exon triplet. Exon U is upstream of Exon X, which is upstream of Exon D. R1, R2 and R3 represent RNA sequencing (RNASeq) reads spanning the regions between two adjacent exons. UI1, I1X, XI2 and I2D are four regions flanking the four splice sites of the exon-triplet. Each flanking region consists of 25 exonic base pairs and 75 intronic base pairs.
FIG. 2B provides a volcano plot showing the ψ (PSI: Percent Spliced-In) changes in splicing after treatment with Compound (I). Each dot represents one of the 161,097 expressed exon triplets in human fibroblasts. The x axis represents the ψ changes after treatment and the y axis represents the False Discovery Rate (FDR) (log 10 transformed). […] The horizontal dashed line indicates an FDR of 0.1. The dots on the right side of the right vertical dashed line and above the horizontal dashed line represent the exon-triplets with an increase for Exon X inclusion (Δψ≥0.1 and FDR<0.1) while the dots on left side of the left vertical dashed line and above the horizontal dashed line represent an increase for Exon X exclusion (Δψ≤−0.1 and FDR<0.1). Black dots in-between the two vertical dashed lines represent exon-triplets unchanged from the treatment.
In some aspects, analysis is performed on data derived from the assay to measure the magnitude of splicing to determine the amount of exons spliced into an mRNA transcript that is produced in the presence of Compound (I) relative to the amount in the absence of Compound (I) or presence of a negative control. In a preferred aspect, the method utilized is calculation of change in Percent Spliced In (ΔPSI). […] The ΔPSI value is derived from the formula: […]
The values for “a” and “b” represent the number of reads supporting the probability for potential inclusion or exclusion of an exon in an RNA transcript. The “a” value is derived from the number of reads within an exon triplet covering, in 5′ to 3′ order: the last few bases (>1 nucleotide) of an upstream exon operably linked to the first few bases (>1 nucleotide) of a middle exon. The “b” value is derived from the number of reads within an exon triplet covering, in 5′ to 3′ order: the last few bases (>1 nucleotide) of the middle exon operably linked to the first few bases (>1 nucleotide) of a downstream exon. The number of reads will indicate whether the splice junction of a middle exon has been identified as potentially having a CNN Motif(s) by the CNN Model described herein, wherein the inclusion or exclusion of the middle exon may be modulated in the presence of Compound (I) to produce one or more mature RNA isoforms from the gene transcript. The value for “c” represents the number of reads supporting the exclusion of the middle exon.
The effect on splicing modulation and corresponding splice differences toward exon inclusion or exclusion was determined by counting the RNASeq reads covering two splice junctions of exon triplets (three consecutive exons: Exon U, Exon X, Exon D) and the corresponding intervening introns, then comparing the change in Percent Spliced In (ΔPSI or Δψ) of the middle exon (Exon X) after treatment (as shown in FIG. 2A)^52,53. 934 exon triplets were identified showing differential middle exon inclusion or exclusion in response to Compound (I) treatment. Of these, 254 were exon inclusion events (Δψ≥0.1 and FDR<0.1) and 680 were exon exclusion events (Δψ≤−0.1 and FDR<0.1) (as shown in FIG. 2B). […] The splicing results were evaluated by RT-PCR in independent replicate experiments, confirming all the calculated Δψ values. […]

[1] = PLA2G12A Exon 110639839-110639915
[2] = PLA2G12A Exon 110639845-110639915
[3] = PLA2R1 Exon 160833196-160833231
[4] = PLAGL1 Exon 144287295-144287335
[5] = PLAGL1 Exon 144287295-144287349
[6] = PLAGL1 Exon 144287295-144287367
[7] = PLAGL1 Exon 144306272-144306311
[8] = PLSCR4 Exon 145968344-145968424
[9] = PNPLA8 Exon 108161920-108161965
[10] = POLR3GL Exon 145457935-145458003
[11] = RWDD1 Exon 116895221-116895334, seven days
[12] = RWDD2B Exon 30380561-30380628, seven days
[13] = RWDD4 Exon 184572371-184572476, seven days
[14] = RWDD4 Exon 184572371-184572480, seven days
[15] = SBF1 Exon 50895463-50895540, seven days
[16] = SCMH1 Exon 41625397-41625605, seven days
[17] = SCRN3 Exon 175262064-175262132, seven days
[18] = SDCCAG8 Exon 243456701-243456796, seven days
[19] = SEC13 Exon 10360823-10360856, seven days
[20] = SEC31A Exon 83783687-83783725, seven days
[21] = SEC31A Exon 83819142-83819215, seven days
[22] = SEC31B Exon 102249765-102250079, seven days
[23] = SECISBP2L Exon 49311615-49311749, seven days
[24] = SEMA4F Exon 74884980-74885078, seven days
[25] = SENP1 Exon 48460710-48460748, seven days
[26] = SENP6 Exon 76332467-76332574, seven days
[27] = SENP6 Exon 76350400-76350420, seven days
[28] = SENP6 Exon 76350403-76350420, seven days
[29] = SERAC1 Exon 158576347-158576383, seven days
[30] = SETD2 Exon 47122406-47122573, seven days

## Clc1nc(NCc2ccncc2)c2cc[nH]c2n1 [Compound (I), 2-chloro-N-(pyridin-4-ylmethyl)-7H-pyrrolo[2,3-d]pyrimidin-4-amine]
PILRB Exon 99950833-99950893
  ΔPSI: −0.264
PIN1 Exon 9947499-9947551
  Effect: Inc
  T-PSI: 0.131
  ΔPSI: 0.107
PINX1 Exon 10677703-10677779
  Effect: Unc
  T-PSI: 0.736
  ΔPSI: 0.010
PKIG Exon 43211226-43211372
  Effect: Exc
  T-PSI: 0.417
  ΔPSI: −0.152
[1]
  Effect: Exc
  T-PSI: 0.669
  ΔPSI: −0.308
[2]
  Effect: Exc
  T-PSI: 0.460
  ΔPSI: −0.480
[3]
  Effect: Exc
  T-PSI: 0.831
  ΔPSI: −0.122
[4]
  Effect: Exc
  T-PSI: 0.713
  ΔPSI: −0.225
[5]
  Effect: Exc
  T-PSI: 0.657
  ΔPSI: −0.261
[6]
  Effect: Exc
  T-PSI: 0.637
  ΔPSI: −0.272
[7]
  Effect: Exc
  T-PSI: 0.047
  ΔPSI: −0.187
PLBD2 Exon 113822656-113822751
  Effect: Exc
  T-PSI: 0.840
  ΔPSI: −0.148
PLD3 Exon 40871460-40871837
  Effect: Unc
  T-PSI: 0.883
  ΔPSI: −0.007
PLD3 Exon 40871625-40871837
  Effect: Unc
  T-PSI: 0.790
  ΔPSI: −0.008
[8]
  Effect: Unc
  T-PSI: 0.691
  ΔPSI: −0.009
PMS2P3 Exon 75141633-75141745
  Effect: Exc
  T-PSI: 0.700
  ΔPSI: −0.232
[9]
  Effect: Inc
  T-PSI: 0.871
  ΔPSI: 0.170
PODNL1 Exon 14046793-14046857
  Effect: Exc
  T-PSI: 0.491
  ΔPSI: −0.154
[10]
  Effect: Exc
  T-PSI: 0.858
  ΔPSI: −0.118
[11]
  Effect: Inc
  T-PSI: 0.554
  ΔPSI: 0.263
[12]
  Effect: Exc
  T-PSI: 0.706
  ΔPSI: −0.147
[13]
  Effect: Exc
  T-PSI: 0.742
  ΔPSI: −0.221
[14]
  Effect: Exc
  T-PSI: 0.815
  ΔPSI: −0.162
[15]
  Effect: Exc
  T-PSI: 0.512
  ΔPSI: −0.156
[16]
  Effect: Exc
  T-PSI: 0.412
  ΔPSI: −0.180
[17]
  Effect: Unc
  T-PSI: 0.112
  ΔPSI: 0.005
[18]
  Effect: Inc
  T-PSI: 0.388
  ΔPSI: 0.234
[19]
  Effect: Unc
  T-PSI: 0.273
  ΔPSI: 0.005
[20]
  Effect: Unc
  T-PSI: 0.735
  ΔPSI: −0.003
[21]
  Effect: Unc
  T-PSI: 0.868
  ΔPSI: −0.004
[22]
  Effect: Exc
  T-PSI: 0.464
  ΔPSI: −0.319
[23]
  Effect: Exc
  T-PSI: 0.533
  ΔPSI: −0.201
[24]
  Effect: Exc
  T-PSI: 0.016
  ΔPSI: −0.286
[25]
  Effect: Exc
  T-PSI: 0.742
  ΔPSI: −0.218
[26]
  Effect: Exc
  T-PSI: 0.126
  ΔPSI: −0.101
[27]
  Effect: Exc
  T-PSI: 0.568
  ΔPSI: −0.140
[28]
  Effect: Exc
  T-PSI: 0.594
  ΔPSI: −0.123
[29]
  Effect: Exc
  T-PSI: 0.575
  ΔPSI: −0.208
[30]
  Effect: Unc
  T-PSI: 0.109
  ΔPSI: −0.002
SETD5 Exon 9476274-9476314, seven days
  Effect: Exc

From patent US20230047208A1, “RNA Splicing Modulation” (The General Hospital Corporation, priority 2020, published 2023)
